Results deposited as PubChem BioAssay AID652272 (Drosophila RNAi Screening Center, 2013)

- Assay: 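Genes whose knock-down decreases or increases Hedgehog reporter output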 (primary screen)
- Cell system: Drosophila clone 8 (Cl8) cells
- Reagent: long dsRNA against Drosophila genes
- Read-out: 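Plate reader light from a firefly reporter under a ptc promoter fragment that responds to Hedgehog, with Renilla light as transfection reference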
- Scale: firefly Hh reporter signal: higher = more ptc reporter light; Renilla reference signal: higher = more Renilla control light
- Active means: 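Hit when the z-score averaged over two replicates is under -2 or over +3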
- Meaning of the calls: active = hit: reporter lowered or raised; inactive = not a hit
In all, the deposit lists about 21,000 reagents; shown is an unselected part of those that have a named target and a result. Over the whole deposit, 503 (2.4%) are marked active. 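Raw plate light values, not normalised; calls rest on replicate z-scores that were not deposited; hits include reporter decreases as well as increases.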 Entries without a mark were called inactive. Reagents against one gene are numbered here. A plus sign joins genes that one reagent is predicted to hit. The record does not give: the amount of reagent, the time to read-out.

Fancm showed firefly Hh reporter signal, replicate 1 = 1.05e5; firefly Hh reporter signal, replicate 2 = 82104; Renilla reference signal, replicate 1 = 4711; Renilla reference signal, replicate 2 = 3125. For Prosalpha4T2 the deposit lists firefly Hh reporter signal, replicate 1 = 68400; firefly Hh reporter signal, replicate 2 = 42361; Renilla reference signal, replicate 1 = 1323; Renilla reference signal, replicate 2 = 4272. Lmpt #1 scored firefly Hh reporter signal, replicate 1 = 6.85e5; firefly Hh reporter signal, replicate 2 = 2.55e5; firefly Hh reporter signal, replicate 3 = 1.15e5; Renilla reference signal, replicate 1 = 5527; Renilla reference signal, replicate 2 = 5698. Against Lmpt #2, the entry reads firefly Hh reporter signal, replicate 1 = 1.32e5; Renilla reference signal, replicate 1 = 1920; Renilla reference signal, replicate 2 = 3905. Knock-down of Lmpt #3 came out at: firefly Hh reporter signal, replicate 1 = 99644; firefly Hh reporter signal, replicate 2 = 53907; Renilla reference signal, replicate 1 = 4214; Renilla reference signal, replicate 2 = 2307. Against Lmpt #4, the values are firefly Hh reporter signal, replicate 1 = 1.64e5; Renilla reference signal, replicate 1 = 2464; Renilla reference signal, replicate 2 = 4696.

Depletion of Lmpt #5 gave: firefly Hh reporter signal, replicate 1 = 1.42e5; Renilla reference signal, replicate 1 = 2000; Renilla reference signal, replicate 2 = 4419. Depletion of brn came out at: firefly Hh reporter signal, replicate 1 = 1.13e5; firefly Hh reporter signal, replicate 2 = 1.16e5; Renilla reference signal, replicate 1 = 2560; Renilla reference signal, replicate 2 = 4041. With knock-down of NaPi-III #1, the record shows firefly Hh reporter signal, replicate 1 = 47081; firefly Hh reporter signal, replicate 2 = 79251; Renilla reference signal, replicate 1 = 2307; Renilla reference signal, replicate 2 = 3100. After knock-down of NaPi-III #2, the screen gave firefly Hh reporter signal, replicate 1 = 32384; firefly Hh reporter signal, replicate 2 = 22320; firefly Hh reporter signal, replicate 3 = 15584; Renilla reference signal, replicate 1 = 2492; Renilla reference signal, replicate 2 = 1429. Knock-down of CG10365 resulted in: firefly Hh reporter signal, replicate 1 = 4.99e5; firefly Hh reporter signal, replicate 2 = 1.11e5; Renilla reference signal, replicate 1 = 24913; Renilla reference signal, replicate 2 = 3628. Knock-down of Mctp resulted in: firefly Hh reporter signal, replicate 1 = 88714; firefly Hh reporter signal, replicate 2 = 58234; Renilla reference signal, replicate 1 = 2560; Renilla reference signal, replicate 2 = 3977.

Silencing of Ir7d resulted in: firefly Hh reporter signal, replicate 1 = 76451; firefly Hh reporter signal, replicate 2 = 1.65e5; Renilla reference signal, replicate 1 = 2308; Renilla reference signal, replicate 2 = 7776.

An excerpt taken from the entries so far:
NaPi-III #1 | firefly Hh reporter signal, replicate 1 = 47081; firefly Hh reporter signal, replicate 2 = 79251; Renilla reference signal, replicate 1 = 2307; Renilla reference signal, replicate 2 = 3100
NaPi-III #2 | firefly Hh reporter signal, replicate 1 = 32384; firefly Hh reporter signal, replicate 2 = 22320; firefly Hh reporter signal, replicate 3 = 15584; Renilla reference signal, replicate 1 = 2492; Renilla reference signal, replicate 2 = 1429
CG10365 | firefly Hh reporter signal, replicate 1 = 4.99e5; firefly Hh reporter signal, replicate 2 = 1.11e5; Renilla reference signal, replicate 1 = 24913; Renilla reference signal, replicate 2 = 3628

The list goes on:
Depletion of CG8664 came out at: firefly Hh reporter signal, replicate 1 = 88461; firefly Hh reporter signal, replicate 2 = 2.10e5; Renilla reference signal, replicate 1 = 3035; Renilla reference signal, replicate 2 = 8576. Silencing of Su(var)205 came out at: firefly Hh reporter signal, replicate 1 = 1.02e5; firefly Hh reporter signal, replicate 2 = 65396; Renilla reference signal, replicate 1 = 4224; Renilla reference signal, replicate 2 = 2834. loco #1 scored firefly Hh reporter signal, replicate 1 = 6.78e5; firefly Hh reporter signal, replicate 2 = 1.51e5; Renilla reference signal, replicate 1 = 33876; Renilla reference signal, replicate 2 = 4944. loco #2 scored firefly Hh reporter signal, replicate 1 = 79392; firefly Hh reporter signal, replicate 2 = 1.06e5; Renilla reference signal, replicate 1 = 3348; Renilla reference signal, replicate 2 = 4050. Su(var)3-3 showed firefly Hh reporter signal, replicate 1 = 1.03e5; firefly Hh reporter signal, replicate 2 = 90731; Renilla reference signal, replicate 1 = 3809; Renilla reference signal, replicate 2 = 3629. Against nAChRalpha3, the values are firefly Hh reporter signal, replicate 1 = 67712; firefly Hh reporter signal, replicate 2 = 3.56e5; Renilla reference signal, replicate 1 = 2056; Renilla reference signal, replicate 2 = 12204.

For alien + CG17906, the entry reads firefly Hh reporter signal, replicate 1 = 1.02e5; firefly Hh reporter signal, replicate 2 = 57965; Renilla reference signal, replicate 1 = 2900; Renilla reference signal, replicate 2 = 5595. After knock-down of robl37BC the results were firefly Hh reporter signal, replicate 1 = 98752; firefly Hh reporter signal, replicate 2 = 70754; Renilla reference signal, replicate 1 = 2736; Renilla reference signal, replicate 2 = 5813. tara gave firefly Hh reporter signal, replicate 1 = 1.06e5; firefly Hh reporter signal, replicate 2 = 1.23e5; Renilla reference signal, replicate 1 = 3017; Renilla reference signal, replicate 2 = 3228. Depletion of wech came out at: firefly Hh reporter signal, replicate 1 = 1.17e5; firefly Hh reporter signal, replicate 2 = 84663; Renilla reference signal, replicate 1 = 4964; Renilla reference signal, replicate 2 = 2560. After knock-down of CG42538, the record shows firefly Hh reporter signal, replicate 1 = 2.47e5; Renilla reference signal, replicate 1 = 5741. Socs36E scored firefly Hh reporter signal, replicate 1 = 1.18e5; firefly Hh reporter signal, replicate 2 = 5.39e5; firefly Hh reporter signal, replicate 3 = 1.05e5; Renilla reference signal, replicate 1 = 4676; Renilla reference signal, replicate 2 = 29808.

Silencing of CAP #1 gave: firefly Hh reporter signal, replicate 1 = 1.89e5; firefly Hh reporter signal, replicate 2 = 2.84e5; Renilla reference signal, replicate 1 = 4678; Renilla reference signal, replicate 2 = 12717. Against CAP #2 the deposit lists firefly Hh reporter signal, replicate 1 = 90080; firefly Hh reporter signal, replicate 2 = 35885; Renilla reference signal, replicate 1 = 2704; Renilla reference signal, replicate 2 = 1112. After knock-down of CAP #3 the results were firefly Hh reporter signal, replicate 1 = 1.12e5; firefly Hh reporter signal, replicate 2 = 48109; Renilla reference signal, replicate 1 = 2662; Renilla reference signal, replicate 2 = 4998. For CAP #4, the values are firefly Hh reporter signal, replicate 1 = 1.01e5; firefly Hh reporter signal, replicate 2 = 69260; Renilla reference signal, replicate 1 = 2310; Renilla reference signal, replicate 2 = 5899. Against CAP #5, the values are firefly Hh reporter signal, replicate 1 = 1.12e5; firefly Hh reporter signal, replicate 2 = 63440; Renilla reference signal, replicate 1 = 2458; Renilla reference signal, replicate 2 = 4508.
